In PMC3162602, “Laforin, a Dual Specificity Phosphatase Involved in Lafora Disease, Is Present Mainly as Monomeric Form with Full Phosphatase Activity” (PLoS ONE, 2011) one finds binding data, which are given here for 2 molecules.

No constants are given. Whether binding was seen depends on the method and setting. In cells and extracts the contact can be indirect. Some entries that bind do so weakly or less than the wild type. Tags and fused reporters may be left off the sequences shown.

The target in this experiment is T1, FLAG-malin (human) (UniProt Q6VVB1).
T1 sequence: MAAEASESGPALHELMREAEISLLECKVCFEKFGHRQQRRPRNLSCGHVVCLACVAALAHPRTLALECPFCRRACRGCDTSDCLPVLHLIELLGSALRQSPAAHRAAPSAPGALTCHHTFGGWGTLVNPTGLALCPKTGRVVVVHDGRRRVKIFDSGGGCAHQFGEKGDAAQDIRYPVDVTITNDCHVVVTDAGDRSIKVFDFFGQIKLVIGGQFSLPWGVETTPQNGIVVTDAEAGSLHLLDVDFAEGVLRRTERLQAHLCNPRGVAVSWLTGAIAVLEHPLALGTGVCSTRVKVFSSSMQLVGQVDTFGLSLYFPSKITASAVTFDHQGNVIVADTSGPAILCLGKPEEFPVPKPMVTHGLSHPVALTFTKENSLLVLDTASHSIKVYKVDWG
Description: co-IP; FLAG-malin immunoprecipitated from HEK293 lysate on anti-FLAG M2 agarose, washed twice with modified RIPA buffer, then incubated with purified laforin monomer or dimer for 1 hr at 4°C; washed, eluted, blotted for laforin and FLAG; only the binder purified.

B1: Hs-laforin-HIS6 (enzyme, UniProt O95278 1-331)
chain: MRFRFGVVVPPAVAGARPELLVVGSRPELGRWEPRGAVRLRPAGTAAGDGALALQEPGLWLGEVELAAEEAAQDGAEPGRVDTFWYKFLKREPGGELSWEGNGPHHDRCCTYNENNLVDGVYCLPIGHWIEATGHTNEMKHTTDFYFNIAGHQAMHYSRILPNIWLGSCPRQVEHVTIKLKHELGITAVMNFQTEWDIVQNSSGCNRYPEPMTPDTMIKLYREEGLAYIWMPTPDMSTEGRVQMLPQAVCLLHALLEKGHIVYVHCNAGVGRSTAAVCGWLQYVMGWNLRKVQYFLMAKRPAVYIDEEALARAQEDFFQKFGKVRSSVCSL
In the case of B1, the binding result is listed as “binds”.

B2: laforin dimer (peak A of Hs-laforin-HIS6) (complex, UniProt O95278 1-331)
chain: B1 chain
Consider B2, for which the binding entry was “binds”.
